Several values for one entry are separate records, joined by “and”; a condition that tells them apart may be missing. Identical values can stand only once. ± gives the standard deviation of the averaged measurements. Over roughly 3,800 compounds, “cell shape (eccentricity) Z-score vs DMSO control” has its median near 1.1; the lowest 2% begin near -4.7. The list shows a part of the results.
What follows are compounds tested on human monocyte-derived macrophages (M0) (assay: cell shape (eccentricity) Z-score vs DMSO control; higher = more elongated, M2-like morphology). Details: 20 µM; 24 h; macrophage state: M0 (M-CSF).

Row | SMILES | cell shape (Z-score)
1 | CC1CCCC2=CC(OC2=O)C(C)(C)CCC1=O (stereo unspecified) | -0.683
2 | CC(C)CC(=O)Nc1n[nH]c2c1CN(C(=O)C1CCN(C)CC1)C2(C)C | 2.68
3 | Cc1cccc(C(=O)O)c1O | 0.767
4 | COc1cc([C@H]2c3cc(O)c(OC)cc3C[C@@](O)(CO)[C@@H]2CO)ccc1O | 2.44
5 | CCn1cc(C(=O)O)c(=O)c2cnc(N3CCNCC3)nc21 | 0.375
6 | C[C@@H]1O[C@@H](O[C@H]2[C@@H]3C=CO[C@@H](O[C@@H]4O[C@H](CO)[C@@H](O)[C@H](O)[C@H]4O)[C@@H]3[C@@]3(CO)O[C@@H]23)[C@H](O)[C@H](O)[C@H]1OC(=O)/C=C/c1ccccc1 | 1.81
7 | COc1ccc(S(=O)(=O)N(C(C)=O)c2ccc(OC(C)=O)c3ccccc23)cc1[N+](=O)[O-] | -0.464
8 | Cc1ccc2c(=O)c3ccccc3n(CCCN)c2c1C | 8.39
9 | COc1ccc(NC(=O)c2cc(OCCCN(C)C)nn2Cc2ccccc2)cc1 | -0.951
10 | Cc1cc(CC(C)CC(C)(C)C)n(O)c(=O)c1 (stereo unspecified) | -3.7
11 | CC(C)=CCc1c(O)cc2occ(-c3ccc(O)cc3O)c(=O)c2c1O | 1.07
12 | CN1CCN(C(=O)C[C@H]2CC[C@H](NC(=O)c3ccc4c(c3)OCO4)[C@@H](CO)O2)CC1 | 2.05
13 | N[C@H](C(=O)O)[C@@H]1CC(Cl)=NO1 | -0.884
14 | Cc1c(OCC(F)(F)F)ccnc1CS(=O)c1nc2ccccc2[nH]1 (stereo unspecified) | 3.11
15 | O=S(=O)(O)c1cc(I)c(O)c2ncccc12 | 3.55
16 | CC(=O)OC1CCC2C3CCc4cc(O)ccc4C3CCC12C (stereo unspecified) | 1.45
17 | COc1cc2c(cc1OC)C1Cc3ccc(OC)c(OC)c3CN1CC2 (stereo unspecified) | 3.9
18 | CC1OC(OC2C(O[C@H]3OC[C@](O)(CO)[C@H]3O)COC(O[C@@H]3[C@@H](O)[C@@H](O)[C@H](OC4C(OC(=O)[C@]56CCC(C)(C)CC5C5=CCC7[C@@]8(C)C[C@H](O)[C@H](OC9OC(CO)C(O)C(O)C9O)[C@@](C)(CO)C8[C@H](O)C[C@@]7(C)[C@]5(C)CC6)OCC(O)C4O)O[C@H]3C)C2O)C(O)C(O)C1O (stereo partly specified) | -5.84
19 | OC(CN1CCNCC1)Cn1c2ccc(Br)cc2c2cc(Br)ccc21 (stereo unspecified) | -4.09
20 | O=C1C(=O)C([C@H]2CC[C@H](c3ccc(Cl)cc3)CC2)C(=O)c2ccccc21 (stereo partly specified) | 0.59 ± 2
21 | CC(C)NCC(O)COc1ccc(COCCOC(C)C)cc1 (stereo unspecified) | -0.551

Row | SMILES | cell shape (Z-score)
22 | COC(=O)c1cc(S(C)(=O)=O)ccc1OC | 1.25
23 | C[C@@H]1O[C@@H](O[C@H]2[C@@H](O)[C@@H](C)O[C@@H](O[C@H]3[C@H](O)[C@@H](O)[C@H](O[C@H]4CC[C@@]5(C)C(CC[C@]6(C)C5C=CC5=C7CC(C)(C)CC[C@]7(CO)CC[C@]56C)[C@]4(C)CO)O[C@@H]3CO)[C@@H]2O[C@@H]2O[C@H](CO)[C@@H](O)[C@H](O)[C@H]2O)[C@H](O)[C@H](O)[C@H]1O (stereo partly specified) | -1.32
24 | CC(C)=CCC/C(C)=C/CC(O)/C(C)=C/Cc1cc(C(=O)O)ccc1O (stereo unspecified) | -0.302 ± 2.4
25 | CSc1ccc2c(c1)N(CCC1CCCCN1C)c1ccccc1S2 (stereo unspecified) | 2.4
26 | COC(=O)C1(Cc2ccc(O)c(CC=C(C)C)c2)OC(=O)C(OC)=C1c1ccc(O)c(O)c1 (stereo unspecified) | 2.56
27 | C[C@@H]1CN([C@H](C)CO)S(=O)(=O)c2ccc(C#Cc3ccncc3)cc2O[C@H]1CN(C)C(=O)Nc1ccc2c(c1)OCO2 | 3.81
28 | O=C1CCC(N2C(=O)c3ccccc3C2=O)C(=O)N1 (stereo unspecified) | 1.24 and 2.65
29 | OCc1cc(C(O)CNCCCCCCOCCCCc2ccccc2)ccc1O (stereo unspecified) | 2.86
30 | COC(=O)c1cc(O)cc(OC)c1C(=O)c1c(O)cc(C)cc1O | -0.654 ± 0.67
31 | CO[C@@H]1C=C[C@@]23c4cc5c(cc4CN(CC2O)[C@H]3C1)OCO5 (stereo partly specified) | -3.22
32 | COc1cc(-c2cc(=O)c3c(O)c(OC)c(OC)c(OC)c3o2)cc(OC)c1OC | 1.41 ± 0.82
33 | CN1CCc2ccccc2Cc2[nH]c3ccccc3c2CC1 | 1.9
34 | CC1CC(=O)c2cc(O)c(O)cc2C1 (stereo unspecified) | 1.47 ± 2.1
35 | COC(=O)C1=C[C@@H](O)[C@@H](O)[C@H](O[C@@H]2O[C@H](CO)[C@@H](O)[C@H](O)[C@H]2OC(=O)/C=C/c2ccccc2)C1 | 3.28
36 | C[C@@H]1O[C@@H](OC[C@H]2O[C@@H](OCCc3ccc(O)c(O)c3)[C@H](O)[C@@H](O)[C@@H]2OC(=O)/C=C/c2ccc(O)c(O)c2)[C@H](O)[C@H](O)[C@H]1O | 0.476
37 | Cn1c(=O)c2[nH]cnc2n(C)c1=O | -1.79
38 | C/C(=C\C(=O)O)CCC1C(C)(O)CCC2C(C)(CO)CCCC12C (stereo unspecified) | 2.12 ± 2.3
39 | C=C1C(NC)CCC23CC24CCC2(C)C(C(C)N(C)C(C)=O)C(O)CC2(C)C4CCC13 (stereo unspecified) | -0.492
40 | O=C(N[C@H](COC(=O)[C@H](Cc1ccccc1)NC(=O)c1ccccc1)Cc1ccccc1)c1ccccc1 | 1.44
41 | CCOC(=O)[C@H](CCc1ccccc1)N[C@H]1CCCN2CCC[C@@H](C(=O)O)N2C1=O | 2.15
42 | CC(=O)c1ccc2c(c1)N(CCCN(C)C)c1ccccc1S2 | 3.27

Row | SMILES | cell shape (Z-score)
43 | O=C(O)[C@H](Cc1c[nH]c2ccccc12)N1C(=O)c2ccccc2C1=O | 2.94
44 | CS(=O)(=O)c1ccc([C@@H](O)[C@@H](CO)NC(=O)C(Cl)Cl)cc1 | -1.18
45 | COc1ccc(-c2coc3c(O)c(O)c(OC)cc3c2=O)cc1 | 2.32
46 | CN(C)CCN(Cc1cccs1)c1ccccn1 | 2.95
47 | CS(=O)(=O)c1ccc(-c2cc(Br)sc2-c2ccc(F)cc2)cc1 | 1.89
48 | COc1cc2nc3occc3c(OC)c2cc1OCC(OC(C)=O)C(C)(C)OC(C)=O (stereo unspecified) | 0.556
49 | CNc1cc(NS(=O)(=O)c2ccc(N)cc2)nc(NC)n1 | 3.31
50 | CN1C(=O)CC[C@H]1c1cccnc1 | -0.452
51 | CC(NC(=NC#N)Nc1ccncc1)C(C)(C)C (stereo unspecified) | 0.258
52 | COc1cc2ncnc(Nc3ccc(Cl)cc3F)c2cc1OC | -0.304
53 | Oc1ccc(C2CNCCc3c2cc(O)c(O)c3Cl)cc1 (stereo unspecified) | 1.75
54 | COc1ccc2c(c1)O[C@H]1c3ccc(OC)cc3OC[C@@H]21 | 3.09
55 | CNc1cc2ncnc(Nc3cccc(Br)c3)c2cc1N | 1.73
56 | C=C1CC2C3C=C(C)C4=CC(=O)CC[C@]4(C)C3CC[C@]2(C)[C@@]1(OC(C)=O)C(C)=O (stereo partly specified) | 0.0296
57 | CC1OC(O[C@H]2[C@@H](O)C[C@@]3(C)C([C@H](O)C[C@]4(C)C3CC=C3[C@@H]5CC(C)(C)CC[C@]5(C(=O)OC5OC(C)C(OC6OCC(OC7OCC(O)C(OC8OCC(O)C(O)C8O)C7O)C(O)C6O)C(O)C5O)CC[C@]34C)[C@]2(C)CO)C(O)C(OC2OC(CO)C(O)C(O)C2O)C1O (stereo partly specified) | 0.543
58 | COc1cc(OC)c(C(=O)/C=C/c2ccccc2)c(O)c1O | 0.621
59 | C[C@@H]1O[C@@H](Oc2cc(O)c3c(=O)c(O[C@@H]4O[C@@H](C)[C@H](O)[C@@H](O[C@@H]5OC[C@@H](O)[C@H](O)[C@H]5O)[C@H]4O[C@@H]4O[C@H](CO)[C@@H](O)[C@H](O)[C@H]4O)c(-c4ccc(O)cc4)oc3c2)[C@H](O)[C@H](O)[C@H]1O | 1.14
60 | CN(CCOc1ccc(NS(C)(=O)=O)cc1)CCc1ccc(NS(C)(=O)=O)cc1 | -1.6
61 | CCCCCCN(CCCCCC)C(=O)Cc1c(-c2ccc(F)cc2)[nH]c2ccccc12 | 5.07
62 | COC1=C(N)C(=O)c2nc(-c3nc(C(=O)O)c(C)c(-c4ccc(OC)c(OC)c4O)c3N)ccc2C1=O | 0.0737
63 | C=C[C@](C)(CC[C@@]1(C)[C@H](C)C[C@H](O[C@@H]2O[C@@H](C)[C@H](O[C@@H]3O[C@H](COC(C)=O)[C@@H](O)[C@H](O)[C@H]3O)[C@@H](O)[C@H]2O)[C@@]2(C)C(C)=CCC[C@H]12)O[C@@H]1O[C@H](C)[C@H](O[C@@H]2O[C@@H](C)[C@H](O)[C@@H](O)[C@H]2O)[C@H](O)[C@H]1O | -0.272

Row | SMILES | cell shape (Z-score)
64 | CC[C@H]1OC(=O)[C@H](C)[C@@H](O[C@H]2C[C@@](C)(OC)[C@@H](O)[C@H](C)O2)[C@H](C)[C@@H](O[C@@H]2O[C@H](C)C[C@H](N(C)C)[C@H]2O)[C@](C)(OC)C[C@@H](C)C(=O)[C@H](C)[C@@H](O)[C@]1(C)O | -0.775
65 | C=C1c2cccc(O)c2C(=O)C2C(=O)[C@]3(O)C(=O)C(C(N)=O)C(=O)[C@@H](N(C)C)[C@@H]3[C@@H](O)[C@H]12 (stereo partly specified) | 3.6
66 | CCC(c1ccc(O)cc1)C(CC)c1ccc(O)cc1 (stereo unspecified) | 1.37
67 | C=C[C@@]1(C)CC(=O)[C@@]2(O)[C@](C)(O1)[C@@H](OC(C)=O)[C@@H](O)C1C(C)(C)CC[C@H](O)[C@@]12C (stereo partly specified) | 6.05
68 | CC(C)NCC(O)c1ccc(NS(C)(=O)=O)cc1 (stereo unspecified) | 1.52
69 | O=c1c(O)c(-c2ccccc2)oc2cc(O)ccc12 | 2.46
70 | C[C@]12C=CC(=O)C=C1CCC1C2[C@@H](O)C[C@@]2(C)C1CC[C@]2(O)C(=O)COP(=O)(O)O (stereo partly specified) | -1.89
71 | Cc1nc(C)c(Cl)c(O)c1Cl | 0.0276
72 | C[C@H]1CC(O)C23COC(=O)[C@@H]2CCC[C@@H]3[C@@]12C[C@@H](c1ccoc1)OC2=O (stereo partly specified) | 4.06
73 | COc1cc2nc(N3CCN(C(=O)C4COc5ccccc5O4)CC3)nc(N)c2cc1OC (stereo unspecified) | 0.101
74 | CCN(CC)CCCC(C)Nc1c2ccc(Cl)cc2nc2ccc(OC)cc12 (stereo unspecified) | 3.34
75 | COc1cc(C)c2c(c1C=O)Oc1c(c(C)c(O)c3c1C(O)OC3=O)OC2=O (stereo unspecified) | -1.59
76 | C=CCc1ccc(O)c(-c2ccc(O)c(CC=C)c2)c1 | 0.0605
77 | CC1(C)CC[C@]2(C(=O)O)CC[C@]3(C)C(=CCC4[C@@]5(C)C[C@@H](O)[C@H](O)C(CO)(CO)C5CC[C@]43C)C2[C@@H]1O (stereo partly specified) | 1.72
78 | CN(C)CC/C=C1\c2ccccc2Sc2ccc(Cl)cc21 | 1.96
79 | Nc1ccccc1NC(=O)c1ccc(CNc2nccc(-c3cccnc3)n2)cc1 | -11.8
80 | O=C(COc1c(Cl)cc(Cl)cc1Cl)N/N=C/c1ccc[nH]1 | 2.78
81 | O=C(CC(=O)c1ccc(O)cc1)OC[C@H]1O[C@@H](Oc2ccc(O)cc2)[C@H](OC(=O)c2ccc(O)cc2)[C@@H](O)[C@@H]1O | -0.615
